The numbers were not newly measured in PMC9880397 (Heliyon, 2023), which cites them from elsewhere.

In this data set the test system is HEPG-2 cells. Particulars: read-out: IC50 towards HEPG-2 cells; cited from earlier work.

In the case of `N.N.[Cl][Pt][Cl]` [cisplatin], the IC50 is 28.5 µM.
